PubChem BioAssay AID1259308, NCATS, 2017

Aim: 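Knock-downs that increase output of a recombinant reporter protein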 (primary screen)
Cells: human HEK293 embryonic kidney cells stably expressing firefly luciferase (HEK-CMV-Luc2-Hygro)
Reagents: single siRNA against human genes, 0.8 pmol siRNA per well
Duration: 72 h
Detection: 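Reporter luminescence and viable-cell signal on separate replicate plates, given as percent of non-targeting control and median/MAD z-scores, plus per-cell luciferase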
Scale: total luciferase, z-score and total luciferase, % of control: higher = more reporter protein produced; luciferase per cell, z-score: higher = more reporter output per viable cell; viable cells, % of control: higher = more viable cells
Call rule: 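Active when the median/MAD z-score for overall luciferase is greater than 3; a gene was taken forward for validation with new siRNAs if at least two of its three siRNAs passed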
Calls: active = raised luciferase; inactive = no rise
Here is one part, drawn at random, of about 59,000 reagents tested. About 1,510 of them (2.6%) count as active. 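Calls use total luciferase alone and ignore viability, so some active siRNAs may act by altering cell number.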 Entries without a mark were called inactive. Reagents against one gene are numbered here. No sequences are given here.

| gene knocked down | reagent no. | total luciferase, z-score | total luciferase, % of control | luciferase per cell, z-score | viable cells, % of control |
| --- | --- | --- | --- | --- | --- |
| GTPBP4 (GTP binding protein 4) | 1 | -1.4 | 54.1 | -1.3 | 85 |
| GTPBP4 (GTP binding protein 4) | 2 | -2.04 | 41.3 | -2.29 | 84.3 |
| GTPBP4 (GTP binding protein 4) | 3 | -1.96 | 43 | -2.26 | 87.1 |
| SERGEF (secretion regulating guanine nucleotide exchange factor) | 1 | -0.823 | 65.5 | -1.06 | 96.8 |
| SERGEF (secretion regulating guanine nucleotide exchange factor) | 2 | -0.0836 | 80.2 | -0.513 | 103 |
| SERGEF (secretion regulating guanine nucleotide exchange factor) | 3 | -2.24 | 37.3 | -2.76 | 86.4 |
| PDCD10 (programmed cell death 10) | 1 | 1.03 | 102 | 0.583 | 98.1 |
| PDCD10 (programmed cell death 10) | 2 | -0.91 | 63.8 | -0.876 | 89.8 |
| PDCD10 (programmed cell death 10) | 3 | 0.202 | 85.9 | 0.202 | 91 |
| PCDHB15 (protocadherin beta 15) | 1 | 1.16 | 105 | 1.14 | 86.9 |
| PCDHB15 (protocadherin beta 15) | 2 | -1.02 | 61.6 | -0.688 | 82.5 |
| PCDHB15 (protocadherin beta 15) | 3 | -0.632 | 69.3 | -0.701 | 93.2 |
| ADGRG1 (adhesion G protein-coupled receptor G1) | 1 | -0.83 | 65.4 | -0.159 | 76.2 |
| ADGRG1 (adhesion G protein-coupled receptor G1) | 2 | -1.23 | 57.5 | -0.628 | 75.8 |
| ADGRG1 (adhesion G protein-coupled receptor G1) | 3 | -0.643 | 69.1 | 1.6 | 50.7 |
| ZNF667 (zinc finger protein 667) | 1 | -0.483 | 72.3 | 0.714 | 66.9 |
| ZNF667 (zinc finger protein 667) | 2 | -2 | 42 | -2.21 | 84.1 |
| ZNF667 (zinc finger protein 667) | 3 | -0.261 | 76.7 | 0.438 | 76.4 |
| FAM86B1 | 1 | 1.09 | 104 | 1.66 | 74.7 |
| FAM86B1 | 2 | -0.171 | 78.5 | 0.126 | 84.8 |
| FAM86B1 | 3 | 2.09 | 123 | 2.24 | 76.4 |
| VSX1 (visual system homeobox 1) | 1 | -2 | 42.2 | -1.01 | 61.4 |
| VSX1 (visual system homeobox 1) | 2 | 0.346 | 88.8 | 0.198 | 94.1 |
| VSX1 (visual system homeobox 1) | 3 | 0.482 | 91.5 | 0.141 | 98.5 |
| FAM201A (family with sequence similarity 201 member A) | 1 | -0.165 | 78.6 | 0.508 | 76.9 |
| FAM201A (family with sequence similarity 201 member A) | 2 | 0.112 | 84.1 | 0.446 | 83.6 |
| FAM201A (family with sequence similarity 201 member A) | 3 | 2.67 | 135 | 2.37 | 80.9 |
| CHML (CHM like Rab escort protein) | 1 | 1.03 | 102 | 0.687 | 95.5 |
| CHML (CHM like Rab escort protein) | 2 | -0.384 | 74.2 | 0.755 | 68 |
| CHML (CHM like Rab escort protein) | 3 | 0.403 | 89.9 | 0.643 | 84.8 |
| MYNN (myoneurin) | 1 | 0.963 | 101 | 0.428 | 101 |
| MYNN (myoneurin) | 2 | 2.01 | 122 | 2.21 | 76.1 |
| MYNN (myoneurin) | 3 | 0.0529 | 82.9 | 0.106 | 90.1 |
| APOB (apolipoprotein B) | 1 | -0.0362 | 81.2 | 0.177 | 86.6 |
| APOB (apolipoprotein B) | 2 | -0.738 | 67.2 | -0.278 | 80.8 |
| APOB (apolipoprotein B) | 3 | -0.851 | 65 | -1.49 | 108 |
| C11orf52 (chromosome 11 open reading frame 52) | 1 | 0.732 | 96.5 | 1.2 | 78.6 |
| C11orf52 (chromosome 11 open reading frame 52) | 2 | 0.61 | 94 | 0.227 | 99 |
| C11orf52 (chromosome 11 open reading frame 52) | 3 | -0.504 | 71.9 | -0.861 | 101 |
| MTBP (MDM2 binding protein) | 1 | 0.372 | 89.3 | 0.957 | 77.5 |
| MTBP (MDM2 binding protein) | 2 | 0.717 | 96.1 | 0.457 | 95.3 |
| MTBP (MDM2 binding protein) | 3 | -0.66 | 68.8 | -0.773 | 94.2 |
| KALRN (kalirin RhoGEF kinase) | 1 | 0.441 | 90.7 | 0.298 | 93.7 |
| KALRN (kalirin RhoGEF kinase) | 2 | -0.693 | 68.1 | -0.897 | 96.4 |
| KALRN (kalirin RhoGEF kinase) | 3 | -0.566 | 70.6 | -0.804 | 97.5 |
| TMEM257 (retired record) | 1 | 0.675 | 95.3 | 0.291 | 98.6 |
| TMEM257 (retired record) | 2 | 1.86 | 119 | 1.95 | 79.5 |
| TMEM257 (retired record) | 3 | 1.33 | 108 | 1.43 | 83.1 |
| EDIL3 (EGF like and discoidin domains 3) | 1 | -1.79 | 46.3 | 0.501 | 45.3 |
| EDIL3 (EGF like and discoidin domains 3) | 2 | 2.54 | 132 | 1.9 | 89.8 |
| EDIL3 (EGF like and discoidin domains 3) | 3 | -0.311 | 75.7 | -0.502 | 96.5 |
| PIGG | 1 | 0.0991 | 83.9 | -0.524 | 108 |
| PIGG | 2 | 1.33 | 108 | 0.78 | 98.7 |
| PIGG | 3 | 2.29 | 128 | 0.963 | 111 |
| CABLES1 (Cdk5 and Abl enzyme substrate 1) | 1 | 0.0307 | 82.5 | 0.0135 | 91.9 |
| CABLES1 (Cdk5 and Abl enzyme substrate 1) | 2 | 1.7 | 116 | 0.953 | 101 |
| CABLES1 (Cdk5 and Abl enzyme substrate 1) | 3 | -0.904 | 63.9 | -1.7 | 112 |
| DAAM2 (dishevelled associated activator of morphogenesis 2) | 1 | 0.521 | 92.2 | 0.417 | 92.4 |
| DAAM2 (dishevelled associated activator of morphogenesis 2) | 2 | -2.07 | 40.8 | -2.48 | 87.4 |
| DAAM2 (dishevelled associated activator of morphogenesis 2) | 3 | -0.688 | 68.2 | -0.387 | 84.4 |
| CYP2W1 (cytochrome P450 family 2 subfamily W member 1) | 1 | -1.24 | 57.2 | -0.919 | 81.5 |
| CYP2W1 (cytochrome P450 family 2 subfamily W member 1) | 2 | -1.3 | 56 | -1.21 | 86.2 |
| CYP2W1 (cytochrome P450 family 2 subfamily W member 1) | 3 | -0.829 | 65.4 | -1.19 | 100 |
| ZNF148 (zinc finger protein 148) | 1 | -0.65 | 69 | -1.13 | 104 |
| ZNF148 (zinc finger protein 148) | 2 | -0.0122 | 81.6 | -0.239 | 97.2 |
| ZNF148 (zinc finger protein 148) | 3 | 2.7 | 136 | 2.35 | 81.7 |
| SCARB1 (scavenger receptor class B member 1) | 1 | -0.815 | 65.7 | -0.816 | 91 |
| SCARB1 (scavenger receptor class B member 1) | 2 | -0.241 | 77.1 | -0.366 | 94.9 |
| SCARB1 (scavenger receptor class B member 1) | 3 | -0.773 | 66.5 | -0.204 | 78.4 |
| SULT1A1 (sulfotransferase family 1A member 1) | 1 | 0.342 | 88.7 | 0.167 | 94.9 |
| SULT1A1 (sulfotransferase family 1A member 1) | 2 | 0.623 | 94.3 | -0.0766 | 108 |
| SULT1A1 (sulfotransferase family 1A member 1) | 3 | 4.76 (active) | 177 | 2.27 | 108 |
| CCDC28A (coiled-coil domain containing 28A) | 1 | -0.359 | 74.8 | -0.624 | 98.5 |
| CCDC28A (coiled-coil domain containing 28A) | 2 | -1.23 | 57.4 | -0.719 | 77.5 |
| CCDC28A (coiled-coil domain containing 28A) | 3 | 0.25 | 86.9 | 1.2 | 70.7 |
